Record: PubChem BioAssay AID504744 (Drosophila RNAi Screening Center, 2011)

Test: 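Uncover factors, including feedback loops, that control dAkt activation in fly cells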 (primary screen)
Cell system: Drosophila Kc167 cells
Knock-down reagent: long dsRNA against Drosophila genes, 250 ng dsRNA per well of a 384-well plate
Duration: 3 days of knock-down, then overnight serum-free starvation before stimulation
Treatment: bovine insulin at 387 nM for 10 minutes after 12 h without serum
Read-out: 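In-cell antibody fluorescence for phospho-dAkt in each well over DNA-dye signal, with log2 residuals expressed as z-scores adjusted for cell count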
Call rule: 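Under insulin, a gene counts as a hit if the average z-score of two replicates lies above 2.5 or below -2.5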
The deposit covers about 23,000 reagents; this is an unselected part of those with a known target gene and a result. Of all reagents, 98 (0.43%) are marked active. 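Only hit calls are given; the phospho-dAkt signals, z-scores and hit direction were not deposited.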 A plus sign joins genes that one reagent is predicted to hit. Reagent sequences are not shown.

{"target gene": "CG10553", "dsRNA": "DRSC14254", "Outcome": "inactive"}
{"target gene": "Ttc19", "dsRNA": "DRSC02474", "Outcome": "inactive"}
{"target gene": "CG3568", "dsRNA": "DRSC18312", "Outcome": "inactive"}
{"target gene": "CG30289", "dsRNA": "DRSC03870", "Outcome": "inactive"}
{"target gene": "l(3)04053", "dsRNA": "DRSC11640", "Outcome": "inactive"}
{"target gene": "CG4830", "dsRNA": "DRSC15657", "Outcome": "inactive"}
{"target gene": "CG7715", "dsRNA": "DRSC16301", "Outcome": "inactive"}
{"target gene": "pns", "dsRNA": "DRSC08598", "Outcome": "inactive"}
{"target gene": "Muc26B", "dsRNA": "DRSC02322", "Outcome": "inactive"}
{"target gene": "Dph5", "dsRNA": "DRSC16653", "Outcome": "inactive"}
{"target gene": "CG13170", "dsRNA": "DRSC06298", "Outcome": "inactive"}
{"target gene": "Nepl20", "dsRNA": "DRSC14878", "Outcome": "inactive"}
{"target gene": "CG4679", "dsRNA": "DRSC06880", "Outcome": "inactive"}
{"target gene": "CG3777", "dsRNA": "DRSC18489", "Outcome": "inactive"}
{"target gene": "Fis1", "dsRNA": "DRSC07772", "Outcome": "inactive"}
{"target gene": "mino", "dsRNA": "DRSC14132", "Outcome": "inactive"}
{"target gene": "ms(2)35Ci", "dsRNA": "DRSC01460", "Outcome": "inactive"}
{"target gene": "CG4955", "dsRNA": "DRSC19927", "Outcome": "inactive"}
{"target gene": "Roc1a", "dsRNA": "DRSC18483", "Outcome": "inactive"}
{"target gene": "CG14840", "dsRNA": "DRSC14964", "Outcome": "inactive"}
{"target gene": "CG15728", "dsRNA": "DRSC19694", "Outcome": "inactive"}
{"target gene": "CG15728", "dsRNA": "DRSC22868", "Outcome": "inactive"}
{"target gene": "a", "dsRNA": "DRSC04667", "Outcome": "inactive"}
{"target gene": "a", "dsRNA": "DRSC04668", "Outcome": "inactive"}
{"target gene": "Rad1 + Sws1", "dsRNA": "DRSC00778", "Outcome": "inactive"}
{"target gene": "CG31710", "dsRNA": "DRSC01089", "Outcome": "inactive"}
{"target gene": "CG31710", "dsRNA": "DRSC22863", "Outcome": "inactive"}
{"target gene": "CG6380", "dsRNA": "DRSC02950", "Outcome": "inactive"}
{"target gene": "Rpn5", "dsRNA": "DRSC12367", "Outcome": "inactive"}
{"target gene": "RpL29", "dsRNA": "DRSC04650", "Outcome": "inactive"}
{"target gene": "Bub3", "dsRNA": "DRSC14168", "Outcome": "inactive"}
{"target gene": "fs(2)ltoPP43", "dsRNA": "DRSC02067", "Outcome": "inactive"}

In a second layout: 9 of the entries above.
Roc1a [DRSC18483]
- Outcome: inactive

CG14840 [DRSC14964]
- Outcome: inactive

CG15728 [DRSC19694]
- Outcome: inactive

CG15728 [DRSC22868]
- Outcome: inactive

a [DRSC04667]
- Outcome: inactive

a [DRSC04668]
- Outcome: inactive

Rad1 + Sws1 [DRSC00778]
- Outcome: inactive

CG31710 [DRSC01089]
- Outcome: inactive

CG31710 [DRSC22863]
- Outcome: inactive

Additional records:
{"target gene": "Nup188", "dsRNA": "DRSC21830", "Outcome": "inactive"}
{"target gene": "Cyp4ae1", "dsRNA": "DRSC18455", "Outcome": "inactive"}
{"target gene": "CG32091", "dsRNA": "DRSC10141", "Outcome": "inactive"}
{"target gene": "CG32091", "dsRNA": "DRSC10820", "Outcome": "inactive"}
{"target gene": "Mrgn1", "dsRNA": "DRSC20223", "Outcome": "inactive"}
{"target gene": "Pink1", "dsRNA": "DRSC18361", "Outcome": "active"}
{"target gene": "CG32388", "dsRNA": "DRSC08861", "Outcome": "inactive"}
{"target gene": "Fcp3C", "dsRNA": "DRSC18665", "Outcome": "inactive"}
{"target gene": "CG15841 (retired record) + Acp33A", "dsRNA": "DRSC01859", "Outcome": "inactive"}
{"target gene": "CG15628", "dsRNA": "DRSC00256", "Outcome": "inactive"}
{"target gene": "CG15628", "dsRNA": "DRSC00463", "Outcome": "inactive"}
{"target gene": "AnxB10", "dsRNA": "DRSC20677", "Outcome": "inactive"}
{"target gene": "ND-B17", "dsRNA": "DRSC01981", "Outcome": "inactive"}
{"target gene": "CG1674", "dsRNA": "DRSC17142", "Outcome": "inactive"}
{"target gene": "CG13220", "dsRNA": "DRSC06342", "Outcome": "inactive"}
{"target gene": "Tcs6 + PIG-P", "dsRNA": "DRSC13742", "Outcome": "inactive"}
{"target gene": "Tcs6 + PIG-P", "dsRNA": "DRSC14893", "Outcome": "inactive"}
{"target gene": "msd1", "dsRNA": "DRSC08383", "Outcome": "inactive"}
{"target gene": "CG13685", "dsRNA": "DRSC10043", "Outcome": "inactive"}
{"target gene": "CG4546", "dsRNA": "DRSC15593", "Outcome": "inactive"}
{"target gene": "CG3420", "dsRNA": "DRSC04995", "Outcome": "inactive"}
{"target gene": "GstE10", "dsRNA": "DRSC06671", "Outcome": "inactive"}
{"target gene": "CG6638", "dsRNA": "DRSC10680", "Outcome": "inactive"}
{"target gene": "Mdh1 (retired record)", "dsRNA": "DRSC02846", "Outcome": "inactive"}
{"target gene": "CG13623", "dsRNA": "DRSC14625", "Outcome": "inactive"}
